Data source: PubChem BioAssay AID743454 (Peter MacCallum Cancer Centre, 2014)
The deposit covers about 18,000 reagents; this is a random part of them. 450 of all reagents (2.5%) count as active. 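Single biological run; no consistent viability z cut-off exists, so the class columns, not z-scores, define the calls.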 Entries without a mark were called inactive. No sequences are given here.

Screen: 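Knock-downs lowering viability or raising caspase 3/7 activity in vorinostat-treated resistant cells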 (primary screen)
Cell system: human HCT116-VR colon cancer cells, selected for vorinostat resistance
Knock-down reagent: siRNA pool against human genes, 40 nM siRNA pool
Timing: vorinostat for 24 h, read-out about 72 h after transfection
Conditions: vorinostat at 2.5 µM final
Read-out: 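Cell viability by CellTiter-Fluor and caspase 3/7 activity by luminescence, each scaled to mock wells per plate, duplicates averaged, then robust z-scored over all plates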
Reading the numbers: viability robust z-score: higher = more viable cells than screen typical; caspase robust z-score: higher = more caspase 3/7 activity than screen typical
Active means: 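a knock-down is a hit when classed RV1 or RV2 for lowered viability, or CA1 or CA2 for caspase activation; those lethal without drug were dropped; hits were retested singly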

no.	gene	viability hit class	caspase hit class	viability robust z-score	caspase robust z-score
1	MMGT1 (membrane magnesium transporter 1)	no change	no change	0.14	-0.48
2	NUDT14 (nudix hydrolase 14)	no change	no change	-0.38	5.07
3	TMEM201 (transmembrane protein 201)	no change	no change	-1.05	0.62
4	SPATA7 (spermatogenesis associated 7)	no change	no change	-0.22	0.55
5	RPS15A (ribosomal protein S15a)	no change	no change	-4.67	-0.66
6	NME1-NME2 (NME1-NME2 readthrough)	no change	no change	-2.16	-0.66
7	FGFBP2 (fibroblast growth factor binding protein 2)	no change	no change	-0.74	0.9
8	TPPP2 (tubulin polymerization promoting protein family member 2)	no change	no change	0.62	-0.46
9	TSPAN10 (tetraspanin 10)	no change	no change	0.52	-0.97
10	NAT1 (N-acetyltransferase 1)	no change	no change	0.08	-0.12
11	TSPAN15 (tetraspanin 15)	no change	no change	-0.66	-0.82
12	TRIAP1 (TP53 regulated inhibitor of apoptosis 1)	no change	no change	-1.47	1.23
13	RAB1A (RAB1A, member RAS oncogene family)	no change	no change	-0.7	0.69
14	NPAS2 (neuronal PAS domain protein 2)	no change	no change	-0.61	-1.02
15	IRX4 (iroquois homeobox 4)	no change	no change	-1.02	2.54
16	LRMDA (leucine rich melanocyte differentiation associated)	no change	no change	-0.18	-1.23
17	DTX4 (deltex E3 ubiquitin ligase 4)	no change	no change	-0.18	0.53
18	REST (RE1 silencing transcription factor)	no change	no change	-1.5	3.49
19	TPO (thyroid peroxidase)	no change	no change	-1.33	1.62
20	RAI14 (retinoic acid induced 14)	no change	no change	-1.22	2.35
21	ZBED10P (zinc finger BED-type containing 10, pseudogene)	no change	no change	0.9	1.83
22	IL6ST (interleukin 6 cytokine family signal transducer)	no change	no change	0.22	-0.23
23	FHIT (fragile histidine triad diadenosine triphosphatase)	no change	no change	0.8	-0.11
24	MAGEB2 (MAGE family member B2)	no change	no change	-0.46	2.5
25	ENDOG (endonuclease G)	no change	no change	-0.04	0.58
26	FAM9B (family with sequence similarity 9 member B)	no change	no change	0.16	-0.79
27	GHRH (growth hormone releasing hormone)	no change	no change	-0.96	-0.89
28	ZNF829 (zinc finger protein 829)	no change	no change	0.48	-1
29	NSG1 (neuronal vesicle trafficking associated 1)	no change	no change	0.76	2.81
30	MPZL1 (myelin protein zero like 1)	no change	no change	0.04	1.39
31	NUP205 (nucleoporin 205)	RV2 (reduced viability) (active)	no change	-3.88	3.34
32	SMYD4 (SET and MYND domain containing 4)	no change	no change	-0.08	-0.39
33	LRRC39 (leucine rich repeat containing 39)	no change	no change	-0.04	1.18
34	IRF2BP1 (interferon regulatory factor 2 binding protein 1)	no change	no change	-0.98	2.23
35	RPS23 (ribosomal protein S23)	no change	no change	-4.19	-1.26
36	RGS9 (regulator of G protein signaling 9)	no change	no change	1.48	0.79
37	GOLGA2 (golgin A2)	no change	no change	-0.75	1.54
38	DNASE1 (deoxyribonuclease 1)	no change	no change	-0.08	0.62
39	ATN1 (atrophin 1)	no change	no change	-0.6	1.74
